# Results from patent US7176352B1, “Transgenic Lemnaceae” (Yeda Research and Development Company Ltd., priority 1997, dated 2007).
# For at least one compound, name, drawing or mass did not settle the structure.
# Test system: non-transformed Spirodela punctata plants
# Assay: Bleaching of non-transformed control plants by antibiotic or herbicide
# Format: in vivo
# Conditions: SP medium
smiles,measurement,setting,value
NC[C@H]1O[C@H](O[C@H]2[C@H](O)[C@@H](O[C@H]3O[C@H](CO)[C@@H](O)[C@H](N)[C@H]3O)[C@H](N)C[C@@H]2N)[C@H](O)[C@@H](O)[C@@H]1O [Kanamycin],effect on newly emerging plants of non-transformed control cultures,2 μg/ml kanamycin,grew white
same,"effect on control, non-transformed plants","2 mg/l kanamycin, with or without 1% sucrose, 5–10 generations, strain 8717",bleached and eventually died
